{"source": "patent US20240140952A1", "about": "“INHIBITORS AND DEGRADERS OF JANUS KINASE 2” (H. LEE MOFFITT CANCER CENTER AND RESEARCH INSTITUTE, INC., priority 2021, published 2024)", "tested_on": "UKE-1 cells", "test": "UKE-1 cell viability assay (CellTiter Blue)", "settings": "UKE1, 72 h, read-out: UKE-1 cell growth inhibition IC50", "data": [{"smiles": "C[C@@H]1CCN(C(=O)CC#N)C[C@@H]1N(C)c1ncnc2[nH]ccc12", "note": "[Tofacitinib, reference compound]", "values": [{"measurement": "IC50", "result": "0.91 ± 0.1", "unit": "µM"}]}]}
